Assay results as given in US8133885B2, “Non steroidal glucocorticoid receptor modulators” (Merck Sharp & Dohme Corp., priority 2005, dated 2012).
Some of these results come from one statement about several compounds together.

system: Collagen type II-Induced Arthritis; assay: Collagen type II-Induced Arthritis model in mice (paw swelling); format: in vivo; conditions: male Dba/1 mice, therapeutic or semi-therapeutic model, 3 weeks, oral or subcutaneous; examples at a dose of 10 or 20 mg/kg

Row | Molecule | inhibition of arthritis (paw swelling)
1 | CN1c2ccccc2[C@@H]2C[C@@H](NC(=O)C(F)(F)F)CCN2c2ccc([N+](=O)[O-])cc21 (relative stereo) [Example 2, cis-2,2,2-trifluoro-N-(1,2,3,4,10,14b-hexahydro-10-methyl-8-nitrodibenzo[b,f]pyrido[1,2-d][1,4]diazepin-2-yl)acetamide] | significantly inhibit arthritis
2 | C[C@]12C=CC(=O)C=C1CC[C@@H]1[C@@H]2[C@@H](O)C[C@@]2(C)[C@H]1CC[C@]2(O)C(=O)CO [prednisolone, reference compound] | significantly inhibit arthritis
3 | CN1c2ccccc2[C@@H]2C[C@@H](NC(=O)C(Cl)Cl)CCN2c2ccc(C#N)cc21 (relative stereo) [Example 5, cis-2,2-dichloro-N-(8-cyano-1,2,3,4,10,14b-hexahydro-10-methyldibenzo-[b,f]pyrido[1,2-d][1,4]diazepin-2-yl)acetamide] | significantly inhibit arthritis
4 | CN1c2ccccc2[C@@H]2C[C@@H](NC(=O)C(F)(F)F)CCN2c2ccc(C#N)cc21 (relative stereo) [Example 3, cis-N-(8-cyano-1,2,3,4,10,14b-hexahydro-10-methyldibenzo[b,f]pyrido[1,2-d][1,4]diazepin-2-yl)-2,2,2-trifluoroacetamide] | significantly inhibit arthritis
5 | CN1c2ccccc2[C@@H]2C[C@@H](NC(=O)C(F)(F)F)CCN2c2ccc(C(=O)Nc3ccccc3)cc21 (relative stereo) [Example 4, cis-1,2,3,4,10,14b-hexahydro-10-methyl-N-phenyl-2-(2,2,2-trifluoroacetylamino)dibenzo[b,f]pyrido[1,2-d][1,4]diazepine-8-carboxamide] | significantly inhibit arthritis

molecular target: T1, human recombinant GR (Homo sapiens, UniProt P04150); assay: Inhibition of TNFα/IFNγ-stimulated MCP-1 expression in U2OS cells stably transfected with human recombinant GR DNA; format: cell-based; conditions: U2OS cells stimulated with TNFα and IFNγ
T1 construct: expressed in transfected cells; host or cells: U2OS (human osteoblastic cell line)
T1 sequence (P04150 1-777): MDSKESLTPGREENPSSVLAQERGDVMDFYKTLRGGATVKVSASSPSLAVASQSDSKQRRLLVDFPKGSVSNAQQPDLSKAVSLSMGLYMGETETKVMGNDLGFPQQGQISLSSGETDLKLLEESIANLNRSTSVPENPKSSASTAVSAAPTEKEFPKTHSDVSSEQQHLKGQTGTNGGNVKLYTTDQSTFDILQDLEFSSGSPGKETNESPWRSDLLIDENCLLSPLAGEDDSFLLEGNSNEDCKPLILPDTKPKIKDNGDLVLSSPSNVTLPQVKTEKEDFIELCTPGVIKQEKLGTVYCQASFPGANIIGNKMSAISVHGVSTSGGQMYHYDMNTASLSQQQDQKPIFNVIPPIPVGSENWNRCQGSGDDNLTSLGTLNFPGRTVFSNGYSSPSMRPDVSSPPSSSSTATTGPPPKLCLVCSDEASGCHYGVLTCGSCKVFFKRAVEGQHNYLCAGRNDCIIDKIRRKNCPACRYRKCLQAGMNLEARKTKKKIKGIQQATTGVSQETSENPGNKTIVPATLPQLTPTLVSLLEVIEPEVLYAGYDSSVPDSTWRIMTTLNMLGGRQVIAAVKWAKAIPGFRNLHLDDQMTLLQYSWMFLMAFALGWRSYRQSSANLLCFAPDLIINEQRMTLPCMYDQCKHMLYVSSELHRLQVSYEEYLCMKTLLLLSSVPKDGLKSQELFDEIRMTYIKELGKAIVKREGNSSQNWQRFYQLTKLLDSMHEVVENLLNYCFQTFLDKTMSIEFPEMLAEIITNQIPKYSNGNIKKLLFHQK

Row | Molecule | EC50
6 | CN1c2ccccc2[C@@H]2C[C@@H](NC(=O)c3ccoc3)CCN2c2ccc([N+](=O)[O-])cc21 (relative stereo) [Example 19, cis-N-(1,2,3,4,10,14b-hexahydro-10-methyl-8-nitro-dibenzo[b,f]pyrido[1,2-d][1,4]diazepin-2-yl)-furan-3-carboxamide] | 0.2 to 2 nM
7 | CN1c2ccccc2[C@@H]2C[C@@H](NC(=O)C(F)(F)F)CCN2c2ccc([N+](=O)[O-])cc21 (relative stereo) [Example 2, cis-2,2,2-trifluoro-N-(1,2,3,4,10,14b-hexahydro-10-methyl-8-nitrodibenzo[b,f]pyrido[1,2-d][1,4]diazepin-2-yl)acetamide] | 0.2 to 2 nM
8 | CN1c2cc([N+](=O)[O-])ccc2N2CC[C@H](NC(=O)C(F)(F)F)C[C@H]2c2c(Br)cccc21 (relative stereo) [Example 11, cis-N-(14-bromo-1,2,3,4,10,14b-hexahydro-10-methyl-8-nitro-dibenzo-[b,f]pyrido[1,2-d][1,4]diazepin-2-yl)-2,2,2-trifluoroacetamide] | 0.2 to 2 nM
9 | CC(=NO)c1ccc2c(c1)N(C)c1cccc(C)c1C1CC(NC(=O)C(F)(F)F)CCN21 (stereo not drawn) [Example 18, cis-2,2,2-trifluoro-N-[1,2,3,4,10,14b-hexahydro-8-[(1-(hydroxyimino)-ethyl]-10,14-dimethyldibenzo[b,f]pyrido[1,2-d][1,4]diazepin-2-yl]acetamide] | 0.2 to 2 nM
10 | CC1CC(NC(=O)C(F)F)CC2c3ccccc3N(C)c3ccc(Cl)cc3N12 (stereo not drawn) [Example 16, cis-N-(7-chloro-1,2,3,4,10,14b-hexahydro-4,10-dimethyldibenzo[b,f]-pyrido[1,2-d][1,4]diazepin-2-yl)-2,2-difluoroacetamide] | 0.2 to 2 nM
11 | CN(C)C(=O)N[C@H]1CCN2c3ccc([N+](=O)[O-])cc3N(C)c3ccccc3[C@@H]2C1 (relative stereo) [Example 17, cis-N-(1,2,3,4,10,14b-hexahydro-10-methyl-8-nitro-dibenzo[b,f]-pyrido[1,2-d][1,4]diazepin-2-yl)-N′,N′-dimethylurea] | 0.2 to 2 nM
12 | CCC(=O)N[C@H]1CCN2c3ccc([N+](=O)[O-])cc3N(C)c3ccccc3[C@@H]2C1 (relative stereo) [Example 24, cis-N-(1,2,3,4,10,14b-hexahydro-10-methyl-8-nitrodibenzo[b,f]pyrido-[1,2-d][1,4]diazepin-2-yl)propionamide] | 0.2 to 2 nM
13 | CC1CC(NC(=O)C(F)(F)F)CC2c3ccccc3N(C)c3cc(-c4ccncc4)ccc3N12 (stereo not drawn) [Example 14, (2α,4α,14bα)-2,2,2-trifluoro-N-[1,2,3,4,10,14b-hexahydro-4,10-dimethyl-8-(pyridin-4-yl)dibenzo[b,f]pyrido[1,2-d][1,4]diazepin-2-yl]acetamide] | 0.2 to 2 nM
14 | Cc1cccc2c1C1CC(NC(=O)C(F)(F)F)CCN1c1ccc(-c3ncccn3)cc1N2C (stereo not drawn) [Example 23, cis-2,2,2-trifluoro-N-[1,2,3,4,10,14b-hexahydro-10,14-dimethyl-8-(pyramidin-2-yl)dibenzo[b,f]pyrido[1,2-d][1,4]diazepin-2-yl]acetamide] | 0.2 to 2 nM
15 | CN1c2ccccc2[C@@H]2C[C@@H](NC(=O)Cc3cccs3)CCN2c2ccc([N+](=O)[O-])cc21 (relative stereo) [Example 15, cis-N-(1,2,3,4,10,14b-hexahydro-10-methyl-8-nitrodibenzo[b,f]pyrido-[1,2-d][1,4]diazepin-2-yl)-2-thiophenethanamide] | 0.2 to 2 nM
16 | CN1c2ccccc2[C@@H]2C[C@@H](NC(=O)C(F)(F)F)CCN2c2ccc(C=O)cc21 (relative stereo) [Example 1, cis-2,2,2-trifluoro-N-(8-formyl-1,2,3,4,10,14b-hexahydro-10-methyl-dibenzo[b,f]pyrido[1,2-d][1,4]diazepin-2-yl)acetamide] | 0.2 to 2 nM
17 | CSCC(=O)N[C@H]1CCN2c3ccc([N+](=O)[O-])cc3N(C)c3ccccc3[C@@H]2C1 (relative stereo) [Example 22, cis-N-(1,2,3,4,10,14b-hexahydro-10-methyl-8-nitrodibenzo[b,f]pyrido-[1,2-d][1,4]diazepin-2-yl)-2-(methylthio)acetamide] | 0.2 to 2 nM
18 | Cc1cccc2c1[C@@H]1C[C@@H](NC(=O)C(F)(F)F)CCN1c1ccc([N+](=O)[O-])cc1N2C (relative stereo) [Example 10, cis-2,2,2-trifluoro-N-(1,2,3,4,10,14b-hexahydro-10,14-dimethyl-8-nitrodibenzo[b,f]pyrido[1,2-d][1,4]diazepin-2-yl)-acetamide] | 0.2 to 2 nM
19 | CC(=O)c1ccc2c(c1)N(C)c1cccc(C)c1[C@@H]1C[C@@H](NC(=O)C(F)(F)F)CCN21 (relative stereo) [Example 21, cis-N-(8-acetyl-1,2,3,4,10,14b-hexahydro-10,14-dimethyldibenzo[b,f]-pyrido[1,2-d][1,4]diazepin-2-yl)-2,2,2-trifluoroacetamide] | 0.2 to 2 nM

system: LPS-induced TNFα; assay: Inhibition of LPS-induced TNFα in serum of mice; format: in vivo; conditions: 0.5 mg/kg LPS i.p., compound oral or subcutaneous 1 hour before LPS, serum 1½ hours after LPS
Experimental: The potency of compounds to inhibit inflammation was quantified in a model in which mice were treated with lipopolysaccharide (LPS). Anti-inflammatory effects were quantified as inhibition of LPS-induced TNFα (S. R. Hyde & R. E. McCallum, Infection & Immunity, 60; 976-982 (1992)). Mice were treated i.p. with 0.5 mg/kg LPS. […] 1½ hours after LPS induction, serum was collected and mice were sacrificed. TNFα levels in serum were quantified using a commercially available Elisa-kit according to the descriptions of the supplier.

Row | Molecule | ED50 for inhibition of LPS-induced TNFα
20 | cis-N-[1,2,3,4,10,14b-hexahydro-10-methyl-N-phenyl-2-(2,2,2-trifluoroacetylamino)dibenzo[b,f]pyrido[1,2-d][1,4]diazepin-8-yl]-4-methyl-1,2,3-thiadiazole-5-carboxamide [Example 7] | 0.5 to 20 mg/kg
